# Assay results from patent publication US11892401B2, “Boronic acid appended naphthyl-pyridinium fluorescent saccharide sensors for early detection of gastrointestinal diseases” (The Board of Trustees of the Leland Stanford Junior …, priority 2018, dated 2024).
# Assay: Limits of detection and quantification of the fluorescence assay
# Conditions: for LOD (limit of detection): analyte concentration 3 standard deviations above mean baseline fluorescence; for LOQ (limit of quantification): analyte concentration 10 standard deviations above mean baseline fluorescence
# Description: Fluorescence intensity was monitored with increasing sugar concentration, e.g., 0-10 mM for receptor compounds 3 (250 μM) and 4 (250 μM) in 0.1 M sodium phosphate buffer, pH 7.4. Stock solutions of each boronic acid receptor compound (3, and 4) were initially prepared in DMS (1 mg/mL) and then diluted in sodium phosphate buffer to obtain the desired initial 2-fold concentration. Fluorescence measurements were conducted in a 96-well plate (Corning #3694) and to each well 30 μL of each receptor compound and sugar in buffer media was added in triplicate. Blank wells received 60 μL of buffer only. Baseline (Fo) well received receptor and buffer media. Measurements were performed using a Tecan Infinite M1000 instrument, a plate reader (gain 100, flashes 30, z-position 1.8 cm) Plates were shaken for 30 seconds (2 mm orbital amplitude) prior to reading. After blank subtraction, fluorescence intensity relative to initial baseline fluorescence was plotted with respect to increasing sugar concentration (FIG. 9, panels A and B). FIG. 9, panels A and B show normalized fluorescence response of compounds 3 and 4 in the presence of lactulose, mannitol, glucose, galactose and fructose in 0.1 M sodium phosphate buffer, pH 7.4 Excitation wavelength λex=340 nm and emission λem=435 nm was used for each receptor compound.
# The limits of detection (LOD) and quantification (LOQ) were defined as the analyte concentration in which the fluorescence intensity in the assay was 3 and 10 standard deviations above the mean baseline fluorescence.
Structure (SMILES),LOD (limit of detection) [µM],LOQ (limit of quantification) [µM]
OB(O)c1ccccc1C[n+]1ccc(-c2ccc3cc(-c4cc[n+](Cc5ccccc5B(O)O)cc4)ccc3c2)cc1 [Compound 3],100,200
OB(O)c1ccccc1C[n+]1ccc(-c2ccc3ccc(-c4cc[n+](Cc5ccccc5B(O)O)cc4)cc3c2)cc1 [Compound 4],70,190
